From PMC12069319, “Transcriptional co-regulator OCA-B/Pou2af1 restricts Th2 differentiation”
No constants are given. Whether binding was seen depends on the method and setting. For some of these results: A result given as binding can be weak or reduced; the word gives no strength. Tags and fused reporters may be left off the sequences shown.

Protein sequences, listed by entry. Tags and fused reporters are not part of them. Lines headed by an entry give the natural chain unless they say otherwise; changes in a name come on top.
UniProt P14859: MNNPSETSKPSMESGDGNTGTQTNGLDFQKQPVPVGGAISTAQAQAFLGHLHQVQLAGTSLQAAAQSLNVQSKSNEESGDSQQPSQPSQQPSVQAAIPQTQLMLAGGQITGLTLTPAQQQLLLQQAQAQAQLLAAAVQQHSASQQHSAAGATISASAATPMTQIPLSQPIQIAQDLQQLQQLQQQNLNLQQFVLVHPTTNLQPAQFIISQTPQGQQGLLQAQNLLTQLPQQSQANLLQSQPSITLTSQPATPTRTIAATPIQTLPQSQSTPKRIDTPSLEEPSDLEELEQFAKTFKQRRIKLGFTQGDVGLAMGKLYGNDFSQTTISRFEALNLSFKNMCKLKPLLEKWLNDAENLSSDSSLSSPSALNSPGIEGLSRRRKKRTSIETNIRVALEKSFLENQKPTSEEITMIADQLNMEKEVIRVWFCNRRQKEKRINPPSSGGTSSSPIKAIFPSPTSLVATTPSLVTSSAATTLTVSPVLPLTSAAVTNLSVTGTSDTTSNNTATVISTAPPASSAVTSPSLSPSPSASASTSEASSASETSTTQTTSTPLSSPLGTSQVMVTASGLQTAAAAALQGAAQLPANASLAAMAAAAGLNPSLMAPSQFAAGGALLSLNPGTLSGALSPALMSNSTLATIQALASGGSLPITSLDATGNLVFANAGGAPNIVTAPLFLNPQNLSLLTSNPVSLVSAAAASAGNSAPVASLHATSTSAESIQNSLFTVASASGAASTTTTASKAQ

Assays:
[1] = molecular target: Oct1 DNA binding domain (human) (UniProt P14859); assay: native gel or EMSA; supershift of protein bound to the control Octamer-Cy5 DNA probe; 0.6X buffer D, poly-dI/dC, BSA, on ice 15 min, 6% native PAGE in 0.5X TBE; both purified
[2] = molecular target: GATA3, purified recombinant; assay: native gel or EMSA; supershift of protein bound to the Cy5-labeled RHS5_12 DNA probe (ATTAGCAT Oct1 site); 0.6X buffer D, poly-dI/dC, BSA, on ice 15 min, 6% native PAGE in 0.5X TBE; both purified
[3] = molecular target: Oct1 DNA binding domain (human) (UniProt P14859); assay: native gel or EMSA; supershift of protein bound to the Cy5-labeled RHS6 DNA probe; 0.6X buffer D, poly-dI/dC, BSA, on ice 15 min, 6% native PAGE in 0.5X TBE; both purified
[4] = molecular target: GATA3, purified recombinant; assay: as above

B1: OCA-B with C-terminal twinstrep and FLAG tags (protein, UniProt Q16633 1-256)
chain: MLWQKPTAPEQAPAPARPYQGVRVKEPVKELLRRKRGHASSGAAPAPTAVVLPHQPLATYTTVGPSCLDMEGSVSAVTEEAALCAGWLSQPTPATLQPLAPWTPYTEYVPHEAVSCPYSADMYVQPVCPSYTVVGPSSVLTYASPPLITNVTTRSSATPAVGPPLEGPEHQAPLTYFPWPQPLSTLPTSTLQYQPPAPALPGPQFVQLPISIPEPVLQDMEDPRRAASSLTIDKLLLEEEDSDAYALNHTLSVEGF
- binding [1]: binds
- binding [2]: no binding
- binding [3]: binds
- binding [4]: no binding
